Test results from ChEMBL document CHEMBL6134773, “Metal-free synthesis of N-fused quinazolino-quinazoline-diones as a MALAT1 RNA triple helix intercalator” (RSC Med Chem, 2025).

System: HeLa
Test: Cytotoxicity against human HeLa cells measured after 24 hrs by neutral red assay
Format: functional

Structure (SMILES): COc1cccc2c1C(=O)c1c(O)c3c(c(O)c1C2=O)C[C@@](O)(C(=O)CO)C[C@@H]3O[C@H]1C[C@H](N)[C@H](O)[C@H](C)O1 [DOXORUBICIN]
- IC50: 1.39 µM
